Reference: PubChem BioAssay AID686943 (Drosophila RNAi Screening Center, 2013)

Aim: 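Search across the genome for regulators of signalling from receptor tyrosine kinase to ERK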 (primary screen)
Cell system: Drosophila S2R+ haemocyte-like cells expressing YFP-tagged ERK (Rolled)
Knock-down reagent: long dsRNA against Drosophila genes
Conditions: insulin stimulation versus unstimulated cells; dose and duration not given
Detection: 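Per-plate z-scores of phospho-ERK immunostaining normalised to YFP-tagged ERK, measured with and without insulin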
Reading the numbers: replicate 1, z-score of dpERK with insulin and replicate 2, z-score of dpERK with insulin: higher = more active ERK per ERK-YFP after insulin
In all, the deposit lists about 23,000 reagents; below is an unselected part of those with a known target gene and a result. 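Extra replicates exist only for a retested subset of genes; insulin dose and duration not given; both raised and lowered dpERK matter.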 Reagents against one gene are numbered here. Names joined by + are all predicted targets of the reagent. Not all columns of the deposit are shown. Not given: the amount of reagent, the time to read-out.

Hsc70-2 (Heat shock protein 70 cognate 2): replicate 1, z-score of dpERK with insulin = -0.41; replicate 2, z-score of dpERK with insulin = -2.91
Prosbeta2R2 (Proteasome beta2 subunit-related 2): replicate 1, z-score of dpERK with insulin = -1.08; replicate 2, z-score of dpERK with insulin = -0.4
Rsod (Related to Sod): replicate 1, z-score of dpERK with insulin = -0.04; replicate 2, z-score of dpERK with insulin = 0.1
snRNP-U1-70K (small ribonucleoprotein particle U1 subunit 70K) #1: replicate 1, z-score of dpERK with insulin = 0.64; replicate 2, z-score of dpERK with insulin = 0.37
snRNP-U1-70K (small ribonucleoprotein particle U1 subunit 70K) #2: replicate 1, z-score of dpERK with insulin = 1.12; replicate 2, z-score of dpERK with insulin = 0.32
CG7173: replicate 1, z-score of dpERK with insulin = -0.38; replicate 2, z-score of dpERK with insulin = 0.08
CG11286: replicate 1, z-score of dpERK with insulin = 0.02; replicate 2, z-score of dpERK with insulin = 0.23
Sf3a1 (Splicing factor 3a subunit 1): replicate 1, z-score of dpERK with insulin = 4.58; replicate 2, z-score of dpERK with insulin = -2.66
CG33268: replicate 1, z-score of dpERK with insulin = 0.43; replicate 2, z-score of dpERK with insulin = 0.77
CG5727: replicate 1, z-score of dpERK with insulin = 0.21; replicate 2, z-score of dpERK with insulin = -0.25
Pp2A-29B (Protein phosphatase 2A at 29B): replicate 1, z-score of dpERK with insulin = 0.16; replicate 2, z-score of dpERK with insulin = -0.32
COX6AL2 + Ir75d: replicate 1, z-score of dpERK with insulin = -0.18; replicate 2, z-score of dpERK with insulin = 0.69

A run of entries of the results above, as a working copy:
Sf3a1 (Splicing factor 3a subunit 1): replicate 1, z-score of dpERK with insulin = 4.58; replicate 2, z-score of dpERK with insulin = -2.66
CG33268: replicate 1, z-score of dpERK with insulin = 0.43; replicate 2, z-score of dpERK with insulin = 0.77
